Test results from patent US20140087993A1 (TUFTS MEDICAL CENTER, published 2014).
These are yes or no findings as the source states them, for the method shown. In cells and extracts the contact can be indirect. Some results given as binding are weak or reduced against the parent protein; the word gives no strength.

The chains behind the UniProt entries cited, without tags or fusion partners. Residues count along the entry.
UniProt P55085, residues 26-397: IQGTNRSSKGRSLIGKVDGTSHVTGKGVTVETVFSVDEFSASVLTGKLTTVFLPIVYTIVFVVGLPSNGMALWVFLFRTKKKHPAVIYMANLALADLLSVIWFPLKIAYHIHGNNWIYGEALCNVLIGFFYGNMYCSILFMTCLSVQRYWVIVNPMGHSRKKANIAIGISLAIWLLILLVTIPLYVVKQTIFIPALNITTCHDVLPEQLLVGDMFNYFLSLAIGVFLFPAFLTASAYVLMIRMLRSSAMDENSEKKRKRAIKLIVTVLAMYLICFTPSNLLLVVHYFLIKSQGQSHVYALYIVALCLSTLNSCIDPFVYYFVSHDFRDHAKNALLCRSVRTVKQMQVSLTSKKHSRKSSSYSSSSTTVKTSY

Key:
T7-PAR2 [1] = target: T7-PAR2 (UniProt P55085); assay: co-immunoprecipitation
T7-PAR2 [2] = target: T7-PAR2 (UniProt P55085); assay: co-immunoprecipitation from COS7 cells on T7-agarose beads, myc immunoblot

PAR2-myc (from UniProt P55085 26-397) (receptor)
binding (T7-PAR2 [1]): binds
binding (T7-PAR2 [2]): binds
